Three substances from paper PMC10095973 can be followed below.

By UniProt entry, the sequences of proteins in these tests, tags left out. Where a name states a change or a piece, a line headed by the entry shows the natural chain unless it says otherwise.
UniProt Q9SJ89: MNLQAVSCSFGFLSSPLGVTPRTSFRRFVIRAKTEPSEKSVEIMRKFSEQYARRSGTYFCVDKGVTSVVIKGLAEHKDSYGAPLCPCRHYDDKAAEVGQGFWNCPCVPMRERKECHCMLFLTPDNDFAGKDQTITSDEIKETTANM
UniProt O04090: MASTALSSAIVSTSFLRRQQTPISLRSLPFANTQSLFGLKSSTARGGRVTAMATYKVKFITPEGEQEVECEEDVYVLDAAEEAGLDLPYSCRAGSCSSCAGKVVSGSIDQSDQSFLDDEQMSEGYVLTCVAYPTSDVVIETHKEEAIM
UniProt Q8LBP6: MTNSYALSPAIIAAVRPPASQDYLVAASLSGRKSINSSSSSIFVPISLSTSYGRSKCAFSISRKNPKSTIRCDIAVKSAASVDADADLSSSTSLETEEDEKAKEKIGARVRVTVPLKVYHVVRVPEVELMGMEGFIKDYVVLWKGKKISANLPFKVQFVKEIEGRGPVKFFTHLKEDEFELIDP

This test addresses T1, Arabidopsis thaliana purple acid phosphatase 2 (BiFC fusion) (Arabidopsis thaliana) (UniProt Q9LMG7).
T1 sequence: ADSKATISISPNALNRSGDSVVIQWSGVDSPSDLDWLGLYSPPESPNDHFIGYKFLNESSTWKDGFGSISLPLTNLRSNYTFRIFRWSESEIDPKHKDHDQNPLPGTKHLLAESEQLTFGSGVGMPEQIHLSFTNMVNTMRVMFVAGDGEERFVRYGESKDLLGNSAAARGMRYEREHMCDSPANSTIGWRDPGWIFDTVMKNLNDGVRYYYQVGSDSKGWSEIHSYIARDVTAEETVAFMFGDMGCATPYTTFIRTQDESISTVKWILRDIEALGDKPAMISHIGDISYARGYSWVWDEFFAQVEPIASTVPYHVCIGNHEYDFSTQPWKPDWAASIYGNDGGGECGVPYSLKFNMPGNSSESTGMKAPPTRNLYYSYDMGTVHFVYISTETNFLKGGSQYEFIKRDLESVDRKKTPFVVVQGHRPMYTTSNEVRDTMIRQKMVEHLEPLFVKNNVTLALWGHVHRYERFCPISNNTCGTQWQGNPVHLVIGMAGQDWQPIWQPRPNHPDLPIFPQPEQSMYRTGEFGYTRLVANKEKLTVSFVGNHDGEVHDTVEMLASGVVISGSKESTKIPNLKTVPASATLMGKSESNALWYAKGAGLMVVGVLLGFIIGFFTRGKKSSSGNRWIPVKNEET
Description: split reporter; in vivo bimolecular fluorescence complementation (BiFC); host not stated.

These are yes or no findings as the source states them, for the method shown. Binding seen in cells or lysates may run through a third protein. Binding can be weak; no strength is given. Where a sequence is shown, tags or fusion partners need not be part of it.

With “FTRB (BiFC fusion) (from UniProt Q9SJ89)”, the binding result is given as “binds”.

Turning to Fd1 (BiFC fusion) (from UniProt O04090), the binding result is “binds”.

As to “ferredoxin/thioredoxin reductase subunit A2 (BiFC fusion) (from UniProt Q8LBP6)”, the binding entry was “binds”.
